Assay results published in the supplement of paper PMC10338343.
± gives the standard deviation. The list shows a part of the results. Many of these values have a large error.

Test system: EfPiwi piRISC loaded with L1MC piRNA (26 nt)
Test: pre-steady-state target cleavage rate (min^-1); guide: L1MC piRNA 5'p-UAACUAAAUACUAUGCAAGCUGUAGG; MIWI and MILI are mouse PIWI proteins and EfPiwi is from a freshwater sponge; tags in brackets are library labels; higher = faster piRNA-guided slicing of the target
Summary of the method: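 Cleave-'n-Seq used a transcribed, DNA-blocked target RNA library at 0.1 nM and active affinity-purified piRISC with one synthetic guide at 1 nM, with or without 500 nM GTSF1 partner protein, in HEPES–potassium acetate buffer at 33 °C for 0–8 or 0–960 min. Uncleaved targets were sequenced and normalised to depth and to weakly complementary targets, and three trials were pooled with k3 capped at 0.0001 min^-1. The pre-steady-state cleavage rate was estimated by a burst-and-steady-state fit.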

[1] = auxiliary factor: 500 nM Ephydatia muelleri Gtsf1
[2] = auxiliary factor: none (no Gtsf1)

| Sequence | pre-steady-state target cleavage rate [1] | pre-steady-state target cleavage rate [2] |
| --- | --- | --- |
| UCCUGGUACAGCUUGCAUAGUUUUAAGUUA | 0.00117 ± 0.0067 | 0.000851 ± 0.015 |
| UCCUGGAUGUGCAUUGCAUAGUAUUUAGUUA | 0.0129 ± 0.0042 | 0.00184 ± 0.0058 |
| UCCUGCUACUGCUUGCAUUGUAUUUAGUUA | 0.00835 ± 0.0023 | 0.000996 ± 0.0065 |
| UCCUGGAACACCUUGGAUAGUAUUUAGUUA | 0.00205 ± 0.0028 | 0.000333 ± 0.023 |
| UCCUGCUACAGCUUGCAUACUAUUUAGUUA | 0.00755 ± 0.0026 | 0.000774 ± 0.0072 |
| UCCUGGAUGAGCUUGCGUAGUAUUUAGUUA | 0.00425 ± 0.0038 | 0.00294 ± 0.0056 |
| UCCUGGAUCACCUUGCAUACUAUUUAGUUA | 0.00341 ± 0.0028 | 0.000475 ± 0.013 |
| UCCUGGUUGAGCUUGCAUAGUAUUUAGUAA | 0.00604 ± 0.0023 | 0.000652 ± 0.018 |
| UCCUGGAAGAGCUUGCAUAGUAUUUAGAUA | 0.00519 ± 0.0023 | 0.000839 ± 0.011 |
| UCCUGGAUGUCCUUGCAUAGUAUUUUAGUUA | 0.00287 ± 0.0028 | 0.000531 ± 0.015 |
| UCCUGGAUCUGCUUGCAUAGUAUUAAGUUA | 0.00735 ± 0.0037 | 0.0025 ± 0.0051 |
| UCCUGGAACAGCUUGCAUAGUAUUAUAGUUA | 0.0399 ± 0.015 | 0.000613 ± 0.023 |
| UCCUGGAAGAGCUUGCUUAGUAUUUAGUUA | 0.0135 ± 0.0043 | 0.00878 ± 0.005 |
| UCCUGCUACUGCUUGCAUAGUUUUUAGUUA | 0.00399 ± 0.0017 | 0.000563 ± 0.011 |
| UCCUGGAUGUCGAACGUUAGUAUUAAGUAA | < 0.0001 | 0.000105 ± 0.056 |
| UCCUGCUACUGCUUGCAUACUAUUUAGUUA | 0.00669 ± 0.0028 | 0.000866 ± 0.0082 |

Some of the entries so far, as comma-separated lines:
Sequence,pre-steady-state target cleavage rate [1],pre-steady-state target cleavage rate [2]
UCCUGCUACUGCUUGCAUUGUAUUUAGUUA,0.00835 ± 0.0023,0.000996 ± 0.0065
UCCUGGAACACCUUGGAUAGUAUUUAGUUA,0.00205 ± 0.0028,0.000333 ± 0.023
UCCUGGUUGAGCUUGCAUAGUAUUUAGUAA,0.00604 ± 0.0023,0.000652 ± 0.018
UCCUGGAAGAGCUUGCAUAGUAUUUAGAUA,0.00519 ± 0.0023,0.000839 ± 0.011
UCCUGGAUGUCCUUGCAUAGUAUUUUAGUUA,0.00287 ± 0.0028,0.000531 ± 0.015
UCCUGGAUCUGCUUGCAUAGUAUUAAGUUA,0.00735 ± 0.0037,0.0025 ± 0.0051
UCCUGGAACAGCUUGCAUAGUAUUAUAGUUA,0.0399 ± 0.015,0.000613 ± 0.023

Additional records follow:

| Sequence | pre-steady-state target cleavage rate [1] | pre-steady-state target cleavage rate [2] |
| --- | --- | --- |
| UCCUGGAUGUGCUUCGCAUAGUAUUUAGUUA | 0.0132 ± 0.0048 | 0.00142 ± 0.0067 |
| UCCUGGUACAGCUUGUCAUAGUAUUUAGUUA | 0.00651 ± 0.0024 | 0.00275 ± 0.0049 |
| UCCUGCUACAGCUUGCAUAGUAUUUAGGUA | 0.00342 ± 0.0016 | 0.00046 ± 0.011 |
| UCCUGCUAGAGCUUGCAUAGUAUAUAGUUA | 0.00471 ± 0.0017 | 0.00065 ± 0.0099 |
| UCCUGGAUGUGCUAGCAUUGUAUUUAGUUA | 0.000393 ± 0.012 | 0.000282 ± 0.025 |
| UCCUGGUAGAGCUUGCAUAGUAUUUAGUUA | 0.0138 ± 0.0044 | 0.000622 ± 0.02 |
| UCCUGGUACAGCAUGCAUUGUAUUUAGUUA | 0.00628 ± 0.0022 | 0.00113 ± 0.0087 |
| UCCUGGUACAGCUUGCUUAGUAUUUAGUAA | 0.00376 ± 0.0023 | 0.000726 ± 0.012 |
| UCCUCCUACAGCUAGCAUACUAUUUAGUUA | 0.00634 ± 0.002 | 0.0011 ± 0.0063 |
| UCCUGGAUGAGCCUGCAUAGUAUUUAGUUA | 0.032 ± 0.011 | 0.00102 ± 0.0098 |
| UCCUGGAUGAGCUUGCAUACUAUUUAGUUA | 0.00682 ± 0.0019 | 0.00156 ± 0.0061 |
| UCCUCGUACAGCUUCCAUAGUAUUUAGUUA | 0.00339 ± 0.0014 | 0.000299 ± 0.014 |
| UCCUGGUAGAGCUAGCAUAGUAUUUAGUUA | 0.00968 ± 0.0033 | 0.00173 ± 0.0067 |
| UCCUGGAUGACCUUGCAUAGUUUUUAGUUA | 0.00117 ± 0.0061 | 0.000441 ± 0.018 |
| UCCUGCUACAGGUUGCAUUGUAUUUAGUUA | 0.00597 ± 0.0023 | 0.000507 ± 0.016 |
| UCCUGGAUCAGCUUGCAUAGUUUAUAGUUA | 0.00056 ± 0.005 | 0.000489 ± 0.015 |
